In the assay the target is HA-HIF-1α (UniProt Q16665). The experiment in a line: co-IP; A549 cells transfected with HA-HIF-1α and Flag-ZNF91 plasmids; precipitation of either Flag-ZNF91 or HA-HIF-1α; with and without CuB (cucurbitacin B), which attenuated the interaction.

Sequences of proteins named here, by UniProt entry; tags and fusion partners are left off.
UniProt Q16665: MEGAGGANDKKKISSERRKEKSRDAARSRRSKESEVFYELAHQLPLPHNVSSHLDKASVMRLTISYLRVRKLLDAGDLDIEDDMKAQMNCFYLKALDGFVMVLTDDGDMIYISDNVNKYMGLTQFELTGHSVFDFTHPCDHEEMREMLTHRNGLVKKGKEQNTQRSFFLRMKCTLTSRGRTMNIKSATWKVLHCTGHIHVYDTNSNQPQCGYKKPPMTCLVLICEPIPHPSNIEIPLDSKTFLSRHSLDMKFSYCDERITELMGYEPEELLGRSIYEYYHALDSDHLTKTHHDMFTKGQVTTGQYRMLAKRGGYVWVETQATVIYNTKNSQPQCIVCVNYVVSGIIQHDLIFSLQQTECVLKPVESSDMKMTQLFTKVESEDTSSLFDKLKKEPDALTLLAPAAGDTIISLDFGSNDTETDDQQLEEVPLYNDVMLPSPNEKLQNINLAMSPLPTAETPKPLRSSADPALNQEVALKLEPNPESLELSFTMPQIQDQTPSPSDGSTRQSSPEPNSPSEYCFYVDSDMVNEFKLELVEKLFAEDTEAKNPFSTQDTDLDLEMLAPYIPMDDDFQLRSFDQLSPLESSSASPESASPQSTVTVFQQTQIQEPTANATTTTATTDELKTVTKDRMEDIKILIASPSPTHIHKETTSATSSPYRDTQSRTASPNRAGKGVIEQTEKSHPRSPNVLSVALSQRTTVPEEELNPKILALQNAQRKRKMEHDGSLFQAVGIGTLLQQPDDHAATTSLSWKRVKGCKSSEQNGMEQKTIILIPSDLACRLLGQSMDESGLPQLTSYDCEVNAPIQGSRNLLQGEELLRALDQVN

No constants are given. Whether binding was seen depends on the method and setting. In cells and extracts the contact can be indirect. Some binding calls cover weakened binding; strength is not graded here. Sequences can lack the tags named with a protein.

B1: Flag-ZFP91 (protein, UniProt Q96JP5 1-570)
chain: MPGETEEPRPPEQQDQEGGEAAKAAPEEPQQRPPEAVAAAPAGTTSSRVLRGGRDRGRAAAAAAAAAVSRRRKAEYPRRRRSSPSARPPDVPGQQPQAAKSPSPVQGKKSPRLLCIEKVTTDKDPKEEKEEEDDSALPQEVSIAASRPSRGWRSSRTSVSRHRDTENTRSSRSKTGSLQLICKSEPNTDQLDYDVGEEHQSPGGISSEEEEEEEEEMLISEEEIPFKDDPRDETYKPHLERETPKPRRKSGKVKEEKEKKEIKVEVEVEVKEEENEIREDEEPPRKRGRRRKDDKSPRLPKRRKKPPIQYVRCEMEGCGTVLAHPRYLQHHIKYQHLLKKKYVCPHPSCGRLFRLQKQLLRHAKHHTDQRDYICEYCARAFKSSHNLAVHRMIHTGEKPLQCEICGFTCRQKASLNWHMKKHDADSFYQFSCNICGKKFEKKDSVVAHKAKSHPEVLIAEALAANAGALITSTDILGTNPESLTQPSDGQGLPLLPEPLGNSTSGECLLLEAEGMSKSYCSGTERVSLMADGKIFVGSGSSGGTEGLVMNSDILGATTEVLIEDSDSAGP
For the molecule B1, the binding entry was “binds”.

The values are drawn from publication PMC12444886.
